The other results are listed elsewhere or left out.
B1: il2ra_site2_3nfp_sap_8_mot_HHH_b1_07347_000000014_0001_1_18_H_._HHH_b1_05293_0001_0001500057_0000001_1_0001 (protein)
chain: SSSSSRETLREMIELALRALRDLGDEEAVELVEELLEEFEKTGDPKIALEVYEILLRATQSSSSS
B2: il2ra_site1_2b5i_normal_mot_HHH_b2_04910_000000118_0001_1_19_H_._HHH_b1_03031_0001_0000300038_0000001_0_af2pred_0001_af2pred (protein)
chain: SSSSSSQELLREADELAKNGNDEEAAEVLEEAYRIAKELGNRSMLKLIEAALKLVEALLGSSSSS
B3: il2ra_site1_1z92_sap_17_mot_HHH_b1_00561_af2_000000294_0001_1_19_H_._HHH_eva_0050_af2_0002_0000300053_0000001_1_0001_af2pred_0001_af2pred (protein)
chain: SSSSSSEQELAELLIRLIAKLGLSLEQIKELLELVRRLIERGVSEEEAERLIRELAEELSSSSSS
B4: il2ra_site1_3nfp_sap_19_mot_HHH_b2_04939_000000051_0001_20_36_H_._HHH_b1_01129_af2_0001_0000300012_0000001_0_0001_af2pred_0001_af2pred_1_swapped (protein)
chain: DEEEIKEEIRELLKRDPKEALQAAFKLLEEAERNKDPEAARVVLEAMLEVFGDPKLKRSLELARS
B5: il2ra_site1_3nfp_sap_8_mot_HHH_b1_02247_af2_000000083_0001_41_56_H_._ems_3hM_3687_0001_0000200009_0000001_0_0001_af2pred_0001_af2pred_swapped (protein)
chain: PFHELLERLLRRLGVPPEEIEEIREVLEKLSKLATKEAAKLAHELFRLVARGDPERVKELAKQIK
B6: il2ra_site1_3nfp_sap_13_mot_HHH_b1_00678_af2_000000150_0001_43_56_H_._HHH_b2_04216_af2_0001_0000100003_0000001_0_0001 (protein)
chain: DLKEAFKEAVEQLARVAGVPSVEVEEENGRFEVTVEGTNNDARVAKKVIEEAARSFGIEVELSEG
B7: il2ra_site2_2erj_sap_18_mot_HHH_b1_07806_000000211_0001_42_56_H_._HHH_b2_00355_0001_0000100005_0000001_0_0001_af2pred_0001_1_af2pred_swapped (protein)
chain: SSSSSDREEAEERIEELLEEAKHVPNKREAIELLQEAAELASEVDDPELLELVDEVLRRLSSSSS
B8: il2ra_site2_3nfp_sap_13_mot_HHH_b1_01221_af2_000000126_0001_40_57_H_._HHH_b1_08143_0001_0000200015_0000001_0_0001 (protein)
chain: SSSSDRSEEYVEVAIRLLKRAVENNDEEIVERLFHIVRLAAESNHDPELQREVEELFELLKSSSS
B9: il2ra_site2_3nfp_normal_mot_HHH_b1_01086_000000225_0001_20_36_H_._HHH_b2_03611_0001_0000500059_0000001_0 (protein)
chain: SSSSSEEEEKLEELLRELEELLKRDPEEAKRLLKEATNLAYEANDFEIFARLADISFALVSSSSS
B10: il2ra_site2_3nfp_sap_34_mot_HHH_b2_07213_000000002_0001_43_56_H_._4d83e183faf91f8a362147004bdfc8eb_0001_1_af2_0001_0000100006_0000001_0_0001 (protein)
chain: SSSSDVEERVRELLKEAEELLERGNPEEAKRVLAEAAHLAFEANNPELFFEIAELAFEVMGSSSS
B11: il2ra_site1_1z92_sap_14_mot_1581cc1c700002558836ca695aafbf97_0001_1_af2_000000099_0001_17_32_H_._d5167a162c519d043ddc16d89768c28c_0001_1_0001_0000100008_0000001 … (protein)
chain: SLEEEIERALKEAGVPPEEIEAIKRDIRRTQEFGIPPRSIALAVLRALKSHDEELAERVEELLRK
B12: il2ra_site1_2b5i_sap_23_mot_80f7b4c21c45092860cd8bceb88a7fbb_0001_000000049_0001_1_12_H_._b2d1899c17953ecbf06dd009f3b9ec57_0001_0001_0000100003_0000001_0_0001_a … (protein)
chain: SSSSSSKEELRRLLEELNELVQNEKYEEAKKLAEKLLELAKKLKDKFAERVAKLALELLESSSSS
B13: il2ra_site1_3nfp_sap_9_mot_cc4219192d8ccd35c40e7b68f9a57604_0001_af2_000000124_0001_16_32_H_._HHH_b1_05002_af2_0001_0001000017_0000001_0_0001 (protein)
chain: SRALERFVEQARKRGNPEFARVVEILLEVLELDPRLREEIDKIILRLVSGRLPPEEAERLAEELK
B14: il2ra_site2_2erj_normal_mot_af86707857d369f3e1d85dcabc5f9321_0001_000000201_0001_14_29_H_._HHH_b1_04070_af2_0001_0000300022_0000001_1 (protein)
chain: SSSSSEAEEEARELLEEAKRLLEEGNPEEALKVLSRAFVLAYKLGDHELAAEIIELTRLVASSSS
B15: il2ra_site1_1z92_normal_mot_HHH_b1_07120_000000092_0001_43_57_H_._HHH_b2_04866_af2_0001_0000500016_0000001_0_af2pred_0001_af2pred (protein)
chain: SSSSSSDDIEEILELLERAIRVRDEEEVEELLKEAERLARELNDENLLRDVEIVAELKSSSSSSS
B16: il2ra_site2_3nfp_sap_18_mot_HHH_b2_00429_000000100_0001_21_37_H_._HHH_b1_05778_0001_0000100011_0000001_0_0001_af2pred_0001_1_af2pred_swapped (protein)
chain: SSSSDEVEERVKELIEEAEELLKEGDHEEAERLAREALKLALEANDEELFLAVLRLLERILSSSS
B17: il2ra_site2_2erj_sap_19_mot_HHH_b2_01204_af2_000000056_0001_19_34_H_._HHH_b2_05885_af2_0001_0000300005_0000001_0_0001 (protein)
chain: SSSSDDNREQIEEAVRQALENGDYDLAEAVVRLLERFAKRAGDPELEKAAEELEELVEEYRSSSS
B18: il2ra_site1_3nfp_sap_15_mot_HHH_b2_00162_af2_000000036_0001_22_38_H_._HHH_b2_01540_0001_0000300009_0000001_0_0001_af2pred_0001_af2pred (protein)
chain: SSSSSDRTELLRRALELARRGNLEEAKELLEKLAEILEEEGDEEALRKVEADLRLIRKNESSSSS
B19: il2ra_site2_3nfp_normal_mot_HHH_b1_06613_af2_000000098_0001_23_40_H_._HHH_b1_05917_0001_0000100004_0000001_0 (protein)
chain: SSSSSEEEERIEELLEEAKRIEDEEEARRLVSRAAHLAYEIRNHELFAEIADLLFRLIQESSSSS

These binders were tested against il2ra, P01589 (assay: yeast display titration).

Apparent Kd, inactive:
B1 no binding seen, B2 no binding seen, B3 no binding seen, B4 no binding seen, B5 no binding seen, B6 no binding seen, B7 no binding seen, B8 no binding seen, B9 no binding seen, B10 no binding seen, B11 no binding seen, B12 no binding seen, B13 no binding seen, B14 no binding seen, B15 no binding seen, B16 no binding seen, B17 no binding seen, B18 no binding seen, B19 no binding seen

Reference: article PMC10163288
